Results as given in paper PMC7519114.
No constants are given. Whether binding was seen depends on the method and setting. In cells and extracts the contact can be indirect. Some results given as binding are weak or reduced against the parent protein; the word gives no strength.

The chains behind the UniProt entries cited, without tags or fusion partners.
UniProt P56485: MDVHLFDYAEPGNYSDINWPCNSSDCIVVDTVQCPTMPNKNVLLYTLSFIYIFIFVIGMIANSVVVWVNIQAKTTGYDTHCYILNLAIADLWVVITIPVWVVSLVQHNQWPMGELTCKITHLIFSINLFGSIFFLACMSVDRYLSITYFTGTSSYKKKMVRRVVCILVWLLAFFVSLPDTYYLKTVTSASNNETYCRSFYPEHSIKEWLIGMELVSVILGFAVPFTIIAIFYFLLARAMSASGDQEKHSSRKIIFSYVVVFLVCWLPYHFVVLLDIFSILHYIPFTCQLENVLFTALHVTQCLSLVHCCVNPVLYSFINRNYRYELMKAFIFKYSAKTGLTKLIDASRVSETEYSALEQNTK
UniProt P25106: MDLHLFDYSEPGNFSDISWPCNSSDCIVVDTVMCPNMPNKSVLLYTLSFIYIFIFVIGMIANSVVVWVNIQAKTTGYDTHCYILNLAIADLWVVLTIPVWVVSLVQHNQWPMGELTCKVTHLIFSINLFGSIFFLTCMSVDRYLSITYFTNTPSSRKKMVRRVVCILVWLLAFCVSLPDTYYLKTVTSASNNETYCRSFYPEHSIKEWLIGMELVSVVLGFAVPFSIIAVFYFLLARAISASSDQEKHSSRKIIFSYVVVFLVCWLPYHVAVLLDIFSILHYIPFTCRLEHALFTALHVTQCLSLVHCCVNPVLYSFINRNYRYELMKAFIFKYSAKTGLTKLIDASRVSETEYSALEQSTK
UniProt P17302: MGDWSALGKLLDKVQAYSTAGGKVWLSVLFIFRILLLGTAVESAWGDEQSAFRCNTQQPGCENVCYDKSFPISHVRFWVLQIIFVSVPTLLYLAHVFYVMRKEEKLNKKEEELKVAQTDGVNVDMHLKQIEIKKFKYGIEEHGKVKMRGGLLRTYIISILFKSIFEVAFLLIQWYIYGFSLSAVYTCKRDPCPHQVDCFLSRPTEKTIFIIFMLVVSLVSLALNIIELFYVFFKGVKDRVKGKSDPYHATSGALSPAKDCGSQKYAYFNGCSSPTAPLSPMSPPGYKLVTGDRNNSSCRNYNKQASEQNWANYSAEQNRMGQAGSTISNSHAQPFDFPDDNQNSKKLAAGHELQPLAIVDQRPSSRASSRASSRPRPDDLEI
UniProt P23242: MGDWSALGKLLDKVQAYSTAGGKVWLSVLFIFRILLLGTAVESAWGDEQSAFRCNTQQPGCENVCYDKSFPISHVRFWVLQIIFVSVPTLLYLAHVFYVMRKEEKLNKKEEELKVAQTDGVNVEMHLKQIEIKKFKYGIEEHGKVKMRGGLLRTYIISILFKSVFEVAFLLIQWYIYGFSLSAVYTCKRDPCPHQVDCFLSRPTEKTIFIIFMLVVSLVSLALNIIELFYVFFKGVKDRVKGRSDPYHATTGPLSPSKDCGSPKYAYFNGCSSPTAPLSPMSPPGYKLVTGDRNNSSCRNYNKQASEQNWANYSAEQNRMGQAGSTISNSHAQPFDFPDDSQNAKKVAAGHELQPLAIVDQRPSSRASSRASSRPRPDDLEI
UniProt P08754: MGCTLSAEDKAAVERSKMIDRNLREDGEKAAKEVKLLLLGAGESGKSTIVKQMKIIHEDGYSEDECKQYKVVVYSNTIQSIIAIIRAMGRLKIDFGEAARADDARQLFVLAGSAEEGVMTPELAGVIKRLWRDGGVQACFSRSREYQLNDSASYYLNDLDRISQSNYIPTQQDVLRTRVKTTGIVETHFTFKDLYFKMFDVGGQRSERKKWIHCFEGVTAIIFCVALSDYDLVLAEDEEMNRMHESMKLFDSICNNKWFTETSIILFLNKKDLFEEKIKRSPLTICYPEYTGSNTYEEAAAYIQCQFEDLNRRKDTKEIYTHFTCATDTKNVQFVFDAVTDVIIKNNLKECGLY
UniProt P32121: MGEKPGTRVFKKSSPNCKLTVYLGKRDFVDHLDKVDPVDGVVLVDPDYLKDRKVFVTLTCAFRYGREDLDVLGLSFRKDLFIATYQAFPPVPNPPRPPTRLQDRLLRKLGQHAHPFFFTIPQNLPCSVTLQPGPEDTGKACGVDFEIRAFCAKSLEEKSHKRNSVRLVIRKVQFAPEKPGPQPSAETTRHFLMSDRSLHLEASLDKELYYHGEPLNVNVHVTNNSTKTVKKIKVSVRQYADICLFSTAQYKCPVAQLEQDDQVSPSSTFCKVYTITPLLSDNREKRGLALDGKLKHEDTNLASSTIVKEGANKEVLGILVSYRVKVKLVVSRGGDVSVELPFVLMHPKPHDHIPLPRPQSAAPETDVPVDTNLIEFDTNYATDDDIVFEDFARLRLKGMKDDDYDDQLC

Columns and labels:
[1] = biological target: HA-ACKR3 of HA-ACKR3 knock-in mice (mouse (endogenous in HA-ACKR3 knock-in embryonic brain)) (UniProt P56485); test: co-IP; HA-immunoprecipitation from E17 embryonic brains of WT or HA-ACKR3 knock-in mice; lysis in 150 mM NaCl, 5 mM EDTA, 50 mM Tris-HCl pH 7.4, DDM 1.5%; anti-HA magnetic beads overnight at 4 °C; Western blot
[2] = biological target: ACKR3-NLuc (not stated (human or mouse cDNA cloned)) (UniProt P25106); test: FRET or BRET; living HEK293T cells co-expressing an NLuc- or RLuc-tagged donor and a YFP-tagged acceptor; coelenterazine 5 μM, 37 °C; saturation BRET (constant donor, increasing acceptor) and kinetics or concentration-response with vehicle, CXCL12 or CXCL11
[3] = biological target: HA-tagged atypical chemokine receptor 3 (HA-ACKR3) (not stated (human or mouse cDNA cloned)) (UniProt P25106); test: co-IP; HEK293T cells expressing HA-ACKR3 or HA-CXCR4 (with FLAG-tagged β-arrestin2 where named); lysis in 1% DDM; 1.5 mg protein on agarose-conjugated anti-HA antibody overnight at 4 °C; Western blot; cells challenged with vehicle, CXCL12 (10 nM) or CXCL11 (100 nM) for 30 min
[4] = biological target: ACKR3-YFP (not stated (human or mouse cDNA cloned)) (UniProt P25106); test: FRET or BRET; living HEK293T cells co-expressing an NLuc- or RLuc-tagged donor and a YFP-tagged acceptor; coelenterazine 5 μM, 37 °C; saturation BRET (constant donor, increasing acceptor) and kinetics or concentration-response with vehicle, CXCL12 or CXCL11
[5] = biological target: Cx43-YFP (human) (UniProt P17302); test: FRET or BRET; living HEK293T cells expressing YFP-tagged Cx43 and RLuc-tagged β-arrestin2 in the presence of ACKR3, with or without CXCL12 stimulation

With “Connexin 43 (Cx43) of embryonic mouse brain (from UniProt P23242 1-382)” as the substance, how does the binding [1] read?
Its binding is “binds”.

With Cx43-YFP (from UniProt P17302 1-382) as the substance, how does the binding [2] read?
The binding was “binds”.

For “Gap Junction Alpha-1 protein (GJA1, Connexin 43, Cx43) (from UniProt P17302 1-382)”, which binding [3] is on record?
Its binding is “binds”.

For Gαi3-RLuc (from UniProt P08754 1-354), which binding [4] is on record?
The binding was “binds”.

Which binding [5] does the source give for “β-arrestin2-RLuc (from UniProt P32121 1-409)” here?
Its binding is “no binding”.
